Experimental data reported in patent publication US20140100183A1, “CENTRAL ADMINISTRATION OF STABLE FORMULATIONS OF THERAPEUTIC AGENTS FOR CNS CONDITIONS” (The Regents of the University of Colorado, a body corporate, priority 2006, published 2014).
Structures can show the parent of a compound that is named as a salt. Where two headings read alike, the source gives them in different places.

Legend:
[1] = tested on: anxiety in rats (elevated plus maze, open field); assay: Elevated plus maze and open field conflicts test after ICV antidepressants; type: in vivo, rat; conditions: for efficacy following ICV administration: elevated plus maze and open field conflicts test; for Efficacy: rat, in vivo
[2] = tested on: animals; assay: Behavioral toxicology: openfield, elevated plus, ataxia; type: in vivo
[3] = tested on: animals; conditions: Tissue pathology following minimum 28 day continuous perfusion

CNCCC(Oc1ccc(C(F)(F)F)cc1)c1ccccc1 (racemic) [Fluoxetine, (+/−)-N-Methyl-3-phenyl-3-(alpha,alpha,alpha-trifluoro-p-tolyloxy)propylamine hydrochloride]
efficacy following ICV administration [1]: efficacy | Efficacy [1]: anxiety reduction | Highest non-toxic concentration [2]: 0.0172 mg/mL | Highest non-toxic concentration [3]: 0.0172 mg/mL

CN(C)CCCN1c2ccccc2CCc2ccc(Cl)cc21 [Clomipramine, 3-(3-Chloro-10,11-dihydro-5H-dibenz[b,f]azepin-5-yl)propyldimethylamine hydrochloride]
efficacy following ICV administration [1]: efficacy | Efficacy [1]: anxiety reduction
